The results in this text go back to paper PMC8744257.

By UniProt entry, the sequences of proteins in these tests, tags left out. Residues count along the entry.
UniProt Q96R06: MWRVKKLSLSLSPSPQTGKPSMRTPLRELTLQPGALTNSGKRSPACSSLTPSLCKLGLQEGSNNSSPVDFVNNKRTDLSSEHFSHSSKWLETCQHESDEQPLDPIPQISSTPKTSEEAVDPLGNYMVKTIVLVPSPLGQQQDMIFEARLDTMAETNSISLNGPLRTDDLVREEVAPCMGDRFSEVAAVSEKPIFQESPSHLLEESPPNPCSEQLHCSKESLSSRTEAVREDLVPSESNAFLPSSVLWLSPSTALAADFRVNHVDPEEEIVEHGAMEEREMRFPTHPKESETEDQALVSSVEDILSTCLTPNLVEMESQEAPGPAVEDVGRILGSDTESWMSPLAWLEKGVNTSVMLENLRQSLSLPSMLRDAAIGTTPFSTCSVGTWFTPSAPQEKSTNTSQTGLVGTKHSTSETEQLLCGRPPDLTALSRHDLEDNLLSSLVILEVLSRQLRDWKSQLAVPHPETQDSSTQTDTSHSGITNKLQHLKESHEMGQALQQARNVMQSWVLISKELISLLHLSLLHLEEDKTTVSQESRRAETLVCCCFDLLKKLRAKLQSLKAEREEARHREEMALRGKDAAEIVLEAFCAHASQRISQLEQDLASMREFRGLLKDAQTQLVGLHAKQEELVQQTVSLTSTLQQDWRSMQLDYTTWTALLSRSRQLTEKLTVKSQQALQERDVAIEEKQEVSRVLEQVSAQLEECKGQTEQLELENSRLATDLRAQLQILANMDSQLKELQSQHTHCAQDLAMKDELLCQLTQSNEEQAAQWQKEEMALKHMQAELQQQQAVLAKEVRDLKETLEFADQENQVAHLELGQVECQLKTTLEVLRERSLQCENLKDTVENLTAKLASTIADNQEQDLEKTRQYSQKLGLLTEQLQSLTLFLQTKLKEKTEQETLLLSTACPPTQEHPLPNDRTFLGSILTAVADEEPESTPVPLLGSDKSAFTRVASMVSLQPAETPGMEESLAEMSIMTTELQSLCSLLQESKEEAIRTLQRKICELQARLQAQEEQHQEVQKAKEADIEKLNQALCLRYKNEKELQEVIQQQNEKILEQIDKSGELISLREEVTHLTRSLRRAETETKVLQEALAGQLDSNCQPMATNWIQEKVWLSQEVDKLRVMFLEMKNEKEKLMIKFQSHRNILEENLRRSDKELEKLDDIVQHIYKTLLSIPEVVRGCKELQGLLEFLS
UniProt P25705, residues 44-553: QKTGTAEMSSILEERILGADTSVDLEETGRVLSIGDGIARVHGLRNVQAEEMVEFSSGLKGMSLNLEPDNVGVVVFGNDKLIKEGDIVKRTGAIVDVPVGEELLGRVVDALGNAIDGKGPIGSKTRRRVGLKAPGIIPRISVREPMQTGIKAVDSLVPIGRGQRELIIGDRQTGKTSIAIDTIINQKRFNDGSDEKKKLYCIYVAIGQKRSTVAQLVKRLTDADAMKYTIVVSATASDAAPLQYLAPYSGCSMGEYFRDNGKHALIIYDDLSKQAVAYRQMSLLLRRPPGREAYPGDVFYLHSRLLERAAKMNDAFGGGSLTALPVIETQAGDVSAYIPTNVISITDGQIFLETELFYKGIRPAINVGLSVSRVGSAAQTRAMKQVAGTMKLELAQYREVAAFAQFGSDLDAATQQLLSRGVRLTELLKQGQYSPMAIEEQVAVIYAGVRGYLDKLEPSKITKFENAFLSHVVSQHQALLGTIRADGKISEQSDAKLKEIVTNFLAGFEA
UniProt P38646, residues 47-679: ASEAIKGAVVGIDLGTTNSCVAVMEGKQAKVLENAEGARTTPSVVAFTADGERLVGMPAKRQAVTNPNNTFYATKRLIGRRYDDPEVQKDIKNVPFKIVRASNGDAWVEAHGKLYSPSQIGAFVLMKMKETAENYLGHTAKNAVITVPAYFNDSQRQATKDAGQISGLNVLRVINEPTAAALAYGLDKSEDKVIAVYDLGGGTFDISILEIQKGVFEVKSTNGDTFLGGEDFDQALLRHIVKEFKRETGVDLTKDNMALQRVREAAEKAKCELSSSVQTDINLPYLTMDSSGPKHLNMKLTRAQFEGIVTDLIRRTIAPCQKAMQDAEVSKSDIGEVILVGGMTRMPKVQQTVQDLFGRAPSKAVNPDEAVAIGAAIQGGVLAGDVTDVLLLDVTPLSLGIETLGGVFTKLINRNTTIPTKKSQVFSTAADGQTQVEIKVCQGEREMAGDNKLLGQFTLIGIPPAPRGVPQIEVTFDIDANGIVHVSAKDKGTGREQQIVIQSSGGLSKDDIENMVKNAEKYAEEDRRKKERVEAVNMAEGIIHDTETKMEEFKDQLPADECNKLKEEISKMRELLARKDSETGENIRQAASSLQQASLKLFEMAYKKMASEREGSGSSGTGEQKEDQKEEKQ

In assay [1] the target is T1, human CLUH fused to TurboID in N-terminal (TurboID-CLUH) (human) (UniProt O75153).
T1 sequence: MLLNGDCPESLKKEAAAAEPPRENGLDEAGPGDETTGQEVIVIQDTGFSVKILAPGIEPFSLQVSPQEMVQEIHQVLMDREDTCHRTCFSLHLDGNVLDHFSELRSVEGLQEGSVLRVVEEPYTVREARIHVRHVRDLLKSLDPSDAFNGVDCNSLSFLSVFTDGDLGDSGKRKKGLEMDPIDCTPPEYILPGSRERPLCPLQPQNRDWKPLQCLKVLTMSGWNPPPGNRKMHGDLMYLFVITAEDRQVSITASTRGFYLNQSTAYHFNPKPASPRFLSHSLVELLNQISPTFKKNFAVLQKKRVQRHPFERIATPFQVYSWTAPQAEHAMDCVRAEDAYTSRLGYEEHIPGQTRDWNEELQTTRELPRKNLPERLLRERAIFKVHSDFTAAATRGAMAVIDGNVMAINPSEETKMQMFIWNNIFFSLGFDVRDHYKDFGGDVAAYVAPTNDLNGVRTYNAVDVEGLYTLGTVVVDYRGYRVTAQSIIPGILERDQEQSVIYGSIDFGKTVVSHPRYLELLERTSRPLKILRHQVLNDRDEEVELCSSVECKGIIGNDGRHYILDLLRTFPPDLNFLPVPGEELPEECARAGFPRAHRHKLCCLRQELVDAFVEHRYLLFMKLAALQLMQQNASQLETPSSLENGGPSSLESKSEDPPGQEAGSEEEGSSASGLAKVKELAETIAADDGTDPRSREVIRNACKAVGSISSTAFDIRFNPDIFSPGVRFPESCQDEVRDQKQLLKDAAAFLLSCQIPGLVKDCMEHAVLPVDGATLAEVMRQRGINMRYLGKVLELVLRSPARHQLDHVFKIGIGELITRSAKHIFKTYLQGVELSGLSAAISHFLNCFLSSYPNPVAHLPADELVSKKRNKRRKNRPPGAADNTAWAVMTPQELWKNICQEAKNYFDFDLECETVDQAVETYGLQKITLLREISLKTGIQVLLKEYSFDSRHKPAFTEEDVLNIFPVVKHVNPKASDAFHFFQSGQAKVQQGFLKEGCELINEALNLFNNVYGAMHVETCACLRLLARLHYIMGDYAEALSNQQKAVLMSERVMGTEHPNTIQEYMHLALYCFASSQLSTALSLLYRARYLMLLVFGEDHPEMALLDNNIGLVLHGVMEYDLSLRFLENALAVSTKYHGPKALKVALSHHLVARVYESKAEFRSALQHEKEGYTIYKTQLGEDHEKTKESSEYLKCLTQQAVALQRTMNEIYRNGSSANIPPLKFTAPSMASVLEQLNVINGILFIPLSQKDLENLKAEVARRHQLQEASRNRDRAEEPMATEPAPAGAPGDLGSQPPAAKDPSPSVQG
Description: proximity labelling; TurboID in HCT116 stably expressing TurboID-CLUH; 30 min, 50 μM biotin; streptavidin pull-down, western blot (Fig. 6E); mock-treated cells (SPAG5: with or without puromycin); also after SPAG5 knock-down (Fig. S7G-I).

For assay [2], the target named is T2, mouse CLUH (mCLUH) protein fused, in N-terminal, to a modified biotin ligase protein (BioID2-CLUH) (mouse) (UniProt Q5SW19).
T2 sequence: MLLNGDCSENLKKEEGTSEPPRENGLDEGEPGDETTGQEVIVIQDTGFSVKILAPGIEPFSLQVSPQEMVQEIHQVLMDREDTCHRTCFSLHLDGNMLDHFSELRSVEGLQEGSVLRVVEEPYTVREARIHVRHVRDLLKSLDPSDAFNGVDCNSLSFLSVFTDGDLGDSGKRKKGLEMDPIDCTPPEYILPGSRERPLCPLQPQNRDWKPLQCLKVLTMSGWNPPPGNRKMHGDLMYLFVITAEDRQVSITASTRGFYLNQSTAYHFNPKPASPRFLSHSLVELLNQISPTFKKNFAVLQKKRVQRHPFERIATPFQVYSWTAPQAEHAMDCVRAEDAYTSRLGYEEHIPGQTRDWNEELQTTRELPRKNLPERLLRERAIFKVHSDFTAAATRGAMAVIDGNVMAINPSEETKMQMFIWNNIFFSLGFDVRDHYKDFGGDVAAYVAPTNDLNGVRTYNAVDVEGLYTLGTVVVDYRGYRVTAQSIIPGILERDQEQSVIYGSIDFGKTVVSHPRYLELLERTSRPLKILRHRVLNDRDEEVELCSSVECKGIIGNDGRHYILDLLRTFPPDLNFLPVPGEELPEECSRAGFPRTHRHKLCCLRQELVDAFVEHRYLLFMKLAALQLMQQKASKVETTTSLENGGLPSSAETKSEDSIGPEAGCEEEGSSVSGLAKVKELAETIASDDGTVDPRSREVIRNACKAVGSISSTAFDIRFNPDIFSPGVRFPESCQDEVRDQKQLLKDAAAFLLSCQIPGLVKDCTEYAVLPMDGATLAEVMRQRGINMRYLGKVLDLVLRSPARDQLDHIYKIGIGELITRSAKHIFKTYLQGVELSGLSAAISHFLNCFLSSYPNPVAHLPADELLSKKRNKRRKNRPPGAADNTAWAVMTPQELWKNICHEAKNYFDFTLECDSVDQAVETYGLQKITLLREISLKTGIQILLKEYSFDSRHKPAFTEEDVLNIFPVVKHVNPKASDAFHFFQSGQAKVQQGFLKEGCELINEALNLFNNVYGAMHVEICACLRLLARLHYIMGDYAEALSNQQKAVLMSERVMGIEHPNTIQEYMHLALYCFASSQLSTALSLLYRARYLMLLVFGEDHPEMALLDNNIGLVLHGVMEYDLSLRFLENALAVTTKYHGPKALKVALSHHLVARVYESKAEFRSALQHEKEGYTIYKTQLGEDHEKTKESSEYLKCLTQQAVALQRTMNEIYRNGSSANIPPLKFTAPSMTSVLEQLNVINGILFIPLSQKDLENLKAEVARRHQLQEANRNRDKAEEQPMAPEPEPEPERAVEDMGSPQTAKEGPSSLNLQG
The experiment in a line: proximity labelling; BioID in HCT116 stably expressing BioID2-mCLUH, control GFP-BioID2; 24 h, 50 μM biotin; streptavidin beads; LC-MS/MS, three replicates.

In assay [3] the target is T1, human CLUH fused to TurboID in N-terminal (TurboID-CLUH) (human). The experiment in a line: proximity labelling; TurboID in HCT116 stably expressing TurboID-CLUH, control TurboID-GFP; 30 min and 16 h, 50 μM biotin; streptavidin beads; LC-MS/MS.
Assay [4] deals with T3, BioID2-tagged wildtype human CLUH (BioID2-3xHA-CLUH) (human) (UniProt O75153).
T3 sequence: T1 sequence
Description: proximity labelling; BioID in wild-type HCT116 cells stably expressing BioID2-3xHA-CLUH, BioID2-3xHA-CLUH∆TPR or BioID2-3xHA-GFP; 24 h, 50 μM biotin; streptavidin pull-down, western blot (Fig. 5C).

Assay [5] concerns the target T4, mouse CLUH (mCLUH) protein tagged with a triple HA epitope (3xHA) (mouse) (UniProt Q5SW19).
T4 sequence: T2 sequence
Description: affinity purification with mass spectrometry; anti-HA-coupled beads on extracts of HCT116 stably expressing 3xHA-mCLUH; wild-type cells as IP mock; LC-MS/MS, three replicates, spectral counting, FC 2 and 10% FDR.

For assay [6], the target named is T3, BioID2-tagged wildtype human CLUH (BioID2-3xHA-CLUH) (human). Description: proximity labelling; BioID in HCT116 CLUH KO cells stably expressing BioID2-3xHA-CLUH, BioID2-3xHA-CLUH∆TPR or BioID2-3xHA-GFP; 24 h, 50 μM biotin; streptavidin pull-down, western blot (Fig. 5B).
The target of assay [7] is T5, CLUH lacking TPR domain (BioID2-3xHA-CLUH∆TPR) (human) (UniProt O75153).
T5 sequence: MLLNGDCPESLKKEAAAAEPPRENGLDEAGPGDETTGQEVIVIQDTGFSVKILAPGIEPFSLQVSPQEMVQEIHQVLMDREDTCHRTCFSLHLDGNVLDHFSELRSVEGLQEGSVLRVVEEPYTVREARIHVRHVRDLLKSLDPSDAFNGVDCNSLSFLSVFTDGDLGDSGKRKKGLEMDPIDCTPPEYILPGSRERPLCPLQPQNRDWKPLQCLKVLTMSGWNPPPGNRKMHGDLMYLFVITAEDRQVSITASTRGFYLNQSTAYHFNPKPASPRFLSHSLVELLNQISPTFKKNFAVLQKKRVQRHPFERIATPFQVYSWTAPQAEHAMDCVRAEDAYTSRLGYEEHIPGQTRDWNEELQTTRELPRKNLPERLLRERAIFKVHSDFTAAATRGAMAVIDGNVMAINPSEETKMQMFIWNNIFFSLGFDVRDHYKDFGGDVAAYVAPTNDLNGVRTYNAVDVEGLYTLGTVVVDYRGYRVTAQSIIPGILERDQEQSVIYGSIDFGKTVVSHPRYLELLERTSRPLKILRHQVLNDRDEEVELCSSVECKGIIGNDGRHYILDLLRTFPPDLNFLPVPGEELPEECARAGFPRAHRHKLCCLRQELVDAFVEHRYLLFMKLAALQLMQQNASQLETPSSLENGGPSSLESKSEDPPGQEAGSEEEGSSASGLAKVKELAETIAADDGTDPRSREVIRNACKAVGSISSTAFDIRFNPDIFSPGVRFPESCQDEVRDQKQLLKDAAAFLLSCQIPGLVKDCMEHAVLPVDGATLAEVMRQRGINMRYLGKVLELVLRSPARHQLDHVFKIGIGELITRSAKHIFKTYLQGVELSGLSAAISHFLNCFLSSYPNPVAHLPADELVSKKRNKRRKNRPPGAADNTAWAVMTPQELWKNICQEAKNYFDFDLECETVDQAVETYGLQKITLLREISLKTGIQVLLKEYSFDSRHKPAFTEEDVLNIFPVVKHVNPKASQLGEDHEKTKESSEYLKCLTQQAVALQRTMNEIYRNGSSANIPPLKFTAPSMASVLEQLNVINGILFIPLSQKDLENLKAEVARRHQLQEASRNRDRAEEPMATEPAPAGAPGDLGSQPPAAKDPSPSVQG
The description is as above.

Results are given in words; binding and its absence hold for the method and conditions named. Binding seen in cells or lysates may run through a third protein. A yes stands for co-enrichment or nearness to the bait. Other partners may have been found. For part of these data: No binding means not detected with the bait. For part of these data: Sequences can lack the tags named with a protein.

Take “SPAG5 (endogenous, HCT116) (from UniProt Q96R06 1-1193)”: the binding result in assay [1], in assay [2], in assay [3], in assay [4] and in assay [5] was “binds” each time.
Turning to “ATP5A (endogenous, HCT116) (from UniProt P25705 44-553)”, the binding entry is “binds” in assay [6] and “no binding” in assay [7].
For “HSPA9 (endogenous, HCT116) (from UniProt P38646 47-679)”, in that order: “binds” and “no binding”.
